The target in the assay is PD1. In words: SPR sandwich, CM5 chip: PD-1 first captured by immobilised H7-767, then PD-L2 injected.

These are yes or no findings as the source states them, for the method shown. Some entries that bind do so weakly or less than the wild type.

B1: PD-L2 (ligand)
chain: LFTVTVPKELYIIEHGSNVTLECNFDTGSHVNLGAITASLQKVENDTSPHRERATLLEEQLPLGKASFHIPQVQVRDEGQYQCIIIYGVAWDYKYLTLKVKASYRKINTHILKVPETDEVELTCQATGYPLAEVSWPNVSVPANTSHSRTPEGLYQVTSVLRLKPPPGRNFSCVFWNTHVRELTLASIDLQSQMEPRTHPT
As to B1, the binding result was “binds”.

For the origin of these results see patent publication US20250195677A1.
